Test results taken from patent EP1117659B1, “SUBSTITUTED 3-CYANOQUINOLINES AS PROTEIN TYROSINE KINASES INHIBITORS” (Wyeth Holdings Corporation, priority 1998, dated 2000).

Chains of the proteins cited; added tags and fusions are not shown. Residues count along the entry.
UniProt P28482, 2-360 limits assumed: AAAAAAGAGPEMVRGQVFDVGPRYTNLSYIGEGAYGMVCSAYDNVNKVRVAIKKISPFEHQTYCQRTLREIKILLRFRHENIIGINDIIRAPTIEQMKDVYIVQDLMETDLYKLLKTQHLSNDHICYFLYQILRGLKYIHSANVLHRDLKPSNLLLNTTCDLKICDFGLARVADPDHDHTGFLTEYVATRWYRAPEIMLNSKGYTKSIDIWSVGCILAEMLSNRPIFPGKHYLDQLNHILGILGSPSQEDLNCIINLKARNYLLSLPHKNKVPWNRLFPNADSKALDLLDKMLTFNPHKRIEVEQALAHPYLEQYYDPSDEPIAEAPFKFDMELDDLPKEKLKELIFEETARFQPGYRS
UniProt Q02750, whole entry: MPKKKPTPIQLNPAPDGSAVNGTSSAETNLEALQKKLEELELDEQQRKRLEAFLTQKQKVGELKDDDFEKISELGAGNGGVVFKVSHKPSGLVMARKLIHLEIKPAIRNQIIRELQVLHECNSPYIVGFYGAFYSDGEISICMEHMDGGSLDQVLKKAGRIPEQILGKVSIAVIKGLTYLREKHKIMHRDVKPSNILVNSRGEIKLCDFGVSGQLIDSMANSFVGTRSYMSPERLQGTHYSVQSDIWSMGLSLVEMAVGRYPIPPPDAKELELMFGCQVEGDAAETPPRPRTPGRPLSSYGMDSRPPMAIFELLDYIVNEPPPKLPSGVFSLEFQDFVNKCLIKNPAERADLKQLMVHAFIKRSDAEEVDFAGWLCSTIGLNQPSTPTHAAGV

Target: Recombinant human MEK 1 (MAPKK) / recombinant human ERK2 (MAPK) (Mek-Erk) (Homo sapiens, UniProt P28482+Q02750)
Assay: Mitogen Activated Protein Kinase (MAPK) assay, two component coupled Mek-Erk test
Type: biochemical
Settings: read-out: Mek-Erk µM

Q: `CCOc1cc2ncc(C#N)c(Nc3ccc4c(c3)NCC4)c2cc1OCC` was tested. Which IC50 did it give?
A: 2 µM, < 1 µM, 800 nM

Not every entry of the source has a single result; some have several. The other results are left out here. An entry can have further records. Values given together differ, and nothing given here explains why; some may be repeats, others may stem from another dose, organism or construct than stated.
